Measurements reported in PubChem BioAssay AID652248 (Drosophila RNAi Screening Center, 2013)
Screen: 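Kinase and phosphatase regulators of cell lengthening and shape variety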 (primary screen). Cell system: cultured Drosophila hemocytes. Reagents: long dsRNA against Drosophila genes. Read-out: 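Automated microscopy of stained actin, tubulin and nuclei; single-cell shape measures assigned to five reference shape types, giving a score per dsRNA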. Reading the numbers: elongated score: higher = more elongated bipolar cells; normal round score: higher = more normal rounded cells; teardrop score: higher = more small teardrop-shaped cells. Call rule: 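Hits show a significant increase of elongated cells; higher rank given where elongated cells rose as other shape types fell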.
The deposit covers 863 reagents; this is a random part of them. Over the whole deposit, 32 (3.7%) were called active. 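Calls also used reproducibility and a similarity ranking whose scores are not deposited; many active genes show only modest elongated scores.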 Entries without a mark were called inactive. Reagents against one gene are numbered here. Names joined by + are all predicted targets of the reagent. The record does not give: the amount of reagent, the time to read-out.

no.	target	reagent	elongated score, rep 1	elongated score, rep 2	normal round score, rep 1	teardrop score, rep 1
1	Sik3	1	1.85		-4.61	5.02
2	Sik3	2	3.77		-1.95	0.41
3	Lar	1	-0.53		1.2	-1.13
4	Lar	2	-0.33		-0.27	-0.46
5	CG5026	1	-0.1		0.3	-0.09
6	Dyrk2	1	1.44		0.3	-0.95
7	Dyrk2	2	-0.42		-0.68	1.28
8	Argp	1	-0.4		0.86	-0.96
9	Gbs-70E	1	-0.41		0.12	0.34
10	Pka-C3	1	-0.39		0.82	-0.89
11	Pka-C3	2	-0.53		0.96	-0.8
12	Pka-C3	3	-0.38		-1.49	1.26
13	S6KL	1	2.15		-2.94	1.98
14	S6KL	2	-0.53		0.11	-0.02
15	CG17746	1	0.51		-0.03	-0.23
16	CG17746	2	0.45		-0.66	0.12
17	dlg1	1	-0.53		-1.98	2.34
18	dlg1	2	0.83		-1.85	2.53
19	dlg1	3	-0.24		0.06	0.02
20	dlg1	4	6.11		-3.66	1.38
21	CG11425	1	-0.53		0.3	0.06
22	CG11425	2	-0.34		0.14	-0.29
23	Ror	1	-0.39		0.11	0.16
24	CG17124	1	-0.53		0.47	-0.31
25	CG17124	2	2.51		-1.96	1.08
26	rl	1	1.3 (active)		-0.65	2.12
27	rl	2	1.07 (active)		-0.59	1.16
28	rl	3	4.6 (active)		-1.81	0.76
29	CG9962	1	-0.53		-0.89	0.45
30	CG9962	2	0.72		-0.66	0.89
31	CycT	1	-0.53		-0.68	0.71
32	CycT	2	-0.53		-0.25	-0.46
33	CycT	3	0.58		-1.65	0.59
34	pre-mod(mdg4)-X + mod(mdg4) + pre-mod(mdg4)-AE + 3 more	1	-0.04		-1.44	-0.38
35	Mps1	1	-0.53		0.37	-0.4
36	nmdyn-D6	1	1.12		-1.66	0.06
37	Hipk	1	-0.53		0.38	-0.58
38	Dlish	1	0.45		-2.17	2.2
39	Phk-3	1	-0.53		0.46	-0.46
40	Adk2	1	0		-0.09	0.11
41	PRL-1	1	-0.32		0.56	-0.36
42	PRL-1	2	0.88		-1.79	0.18
43	Pka-R2	1	0.25		-1.03	-0.72
44	Pka-R2	2	4.2		-2.44	1.01
45	Lrrk	1	0.8	1.14	-0.91	0.01
46	Lrrk	2	-0.36		-1.35	1.93
47	Lrrk	3	-0.47		-0.68	1.49
48	Doa	1	-0.53		-1.19	1.06
49	Doa	2	0.16		-1.78	1.39
50	Doa	3	1.41		-0.91	0.52
51	Doa	4	0.64		-2.92	-0.36
52	RIOK2	1	-0.03		-0.92	0.63
53	IA-2	1	-0.15	0.84	-0.24	0.7
54	IA-2	2	0.04		0.28	-0.55
55	IA-2	3	0.36		-0.75	0.91
56	IA-2	4	-0.53		0.64	-0.98
57	mei-41	1	-0.53		-0.11	-0.23
58	CG8565	1	-0.21		0.16	-0.28
59	Rok	1	3.54		-4.2	2.3
60	Rok	2	0.43		-1.96	2.09
61	msn	1	0.91		-1.09	1.45
62	msn	2	-0.53		1.32	-1.31
63	msn	3	-0.16		-2.14	-0.5
64	Pi3K92E	1	0.34		-0.04	0.07
65	aay	1	-0.39		-0.09	0.03
66	Argk1	1	1.39	-0.53	-0.39	0.38
67	Argk1	2	-0.18		0.26	-0.37
68	Argk1	3	-0.42		0.16	0.27
69	Argk1	4	-0.53		-0.17	0.34
70	Argk1	5	-0.07		-1.3	2.08

Quoted from the listing (11 entries):
no.	target	reagent	elongated score, rep 1	elongated score, rep 2	normal round score, rep 1	teardrop score, rep 1
7	Dyrk2	2	-0.42		-0.68	1.28
8	Argp	1	-0.4		0.86	-0.96
9	Gbs-70E	1	-0.41		0.12	0.34
10	Pka-C3	1	-0.39		0.82	-0.89
11	Pka-C3	2	-0.53		0.96	-0.8
12	Pka-C3	3	-0.38		-1.49	1.26
13	S6KL	1	2.15		-2.94	1.98
14	S6KL	2	-0.53		0.11	-0.02
15	CG17746	1	0.51		-0.03	-0.23
16	CG17746	2	0.45		-0.66	0.12
17	dlg1	1	-0.53		-1.98	2.34
